Measurements: patent EP2696861B1, “COMBINATION OF EPA, DPA AND/OR DHA WITH A CHEMOTHERAPEUTIC AGENT” (priority 2011, dated 2012)
For at least one compound, name, drawing or mass did not settle the structure.

Tested on: C26 cells
Assay: Metabolic activity of C26 cells after fatty acid pre-incubation and chemotherapy incubation
Type: cell-based, Murine
Conditions: 4 days pre-incubation with 50 µM fatty acid, medium removed, compared to control, p< 0.0001 for EPA or DPA
Experimental: C = mice receiving control diet B, TB = tumor-bearing mice receiving control diet, TB-SNC = tumor-bearing mice receiving the specific nutritional combination.
Prior to chemotherapy incubations, C26 cells were pre-incubated for 4 days with EPA, DHA or DPA in a final concentration of 50 µM. To avoid direct interaction between fatty acids and chemotherapeutics, the medium containing fatty acids was removed before the addition of chemotherapy. The cells were incubated for 24 hr with the chemotherapeutics cisplatin and doxorubicin, after incubation the metabolic activity was measured.

SMILES: CC/C=C\C/C=C\C/C=C\C/C=C\C/C=C\CCCCCC(=O)O [DPA, docosapentaenoic acid]
- metabolic activity after cisplatin treatment (then 24 hr cisplatin): significant lower metabolic activity
- metabolic activity of doxorubicin treated cells (then 24 hr doxorubicin): significant lower metabolic activity
